Reference: paper PMC9844640
These are yes or no findings as the source states them, for the method shown. Where a sequence is shown, tags or fusion partners need not be part of it.

Amino acid sequences for entries named in this document (tags omitted).
UniProt P54619: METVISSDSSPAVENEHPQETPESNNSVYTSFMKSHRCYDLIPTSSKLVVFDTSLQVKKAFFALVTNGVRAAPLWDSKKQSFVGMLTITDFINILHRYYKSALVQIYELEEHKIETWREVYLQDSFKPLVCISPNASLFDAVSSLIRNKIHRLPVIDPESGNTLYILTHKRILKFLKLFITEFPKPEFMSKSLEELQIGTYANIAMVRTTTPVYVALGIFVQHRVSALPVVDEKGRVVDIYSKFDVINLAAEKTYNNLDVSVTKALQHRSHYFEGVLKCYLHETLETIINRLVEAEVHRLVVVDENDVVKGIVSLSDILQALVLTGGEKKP

Target: T1, GST‐TPD52 (UniProt P55327)
T1 sequence: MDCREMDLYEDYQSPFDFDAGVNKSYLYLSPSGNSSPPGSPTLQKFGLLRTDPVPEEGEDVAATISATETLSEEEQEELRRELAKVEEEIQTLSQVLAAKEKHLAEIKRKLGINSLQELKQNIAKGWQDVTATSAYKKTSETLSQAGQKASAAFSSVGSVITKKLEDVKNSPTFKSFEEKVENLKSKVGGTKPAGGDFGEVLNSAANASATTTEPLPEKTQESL
Assay: pull-down; GST pull-down in vitro: GST-TPD52 with His-tagged AMPK subunits or AMPKα1 kinase domain, all purified from E. coli (Figure 1B, 1D); both purified

With “His‐tagged AMPKγ1 (from UniProt P54619 1-331)” the binding was “no binding”.
